# Structures can show the parent of a compound that is named as a salt. Some of the results follow. Repeats in this data set agree poorly, so a single value says little.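 A first-round screen of about ten thousand compounds sought those raising reporter output, using human embryonic kidney cells briefly transfected with a plasmid carrying a Renilla luciferase gene driven by the HSV-TK promoter.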
# Test system: HEK 293FT
# Assay: log relative Renilla luciferase luminescence (reporter expression vs reference, reference not stated) (log (base not stated)); higher = higher recombinant reporter expression
# Conditions: 10 µM; time after transfection 48 h
row,SMILES,log
1,CCOC(=O)C1=C(COCCN)NC(C)=C(C(=O)OC)C1c1ccccc1Cl (stereo not given) [Amlodipine besylate],-0.17
2,CC(=O)N(O)[C@@H]1c2cc(C#N)ccc2OC(C)(C)[C@H]1O,0.113
3,O=C(NCCCN1CCCCCC1)C(c1ccccc1)C1CCCCC1 (stereo not given),-0.0969
4,COc1ccc(-c2nc(-c3ccc(-c4cccc(Cl)c4)o3)[nH]c2-c2ccc(OC)cc2)cc1 [Neurodazine],0.0467
5,CC(C)(C(=O)O)c1ccc(C(O)CCCN2CCC(C(O)(c3ccccc3)c3ccccc3)CC2)cc1 (stereo not given) [Fexofenadine hydrochloride],-0.0293
6,CC(C)(C)[N+]([O-])=Cc1ccc(S(=O)(=O)O)cc1S(=O)(=O)O,-8.27e-06
7,CCN(c1ccccc1)c1cc(=NC)n(C)c(C)n1,-0.085
8,"OCCNCCCOc1cccc(Cl)c1Cl [2,3-DCPE hydrochloride]",-0.271
9,Cc1ccc(NC(=O)C(C)C)cc1C1CCN(Cc2ccc(Oc3ccc(F)c(F)c3)cc2)CC1,-0.0449
10,Nc1nc(F)nc2c1ncn2[C@@H]1O[C@H](CO)[C@@H](O)[C@@H]1O [Fludarabine],-0.00721
11,C1CCC(N=C(NC23CC4CC(CC(C4)C2)C3)N2CCOCC2)CC1,0.0941
12,N[C@@H](Cc1cc(CP(=O)(O)O)cc(-c2ccccc2Cl)c1)C(=O)O,-0.044
13,C=CCc1cccc(/C=N/NC(=O)CN2CCN(Cc3ccccc3)CC2)c1O,-0.551
14,C[C@H](NC[C@H](O)CP(=O)(O)Cc1ccccc1)c1ccc(Cl)c(Cl)c1,-0.0186
15,COc1ccc(C2CC(c3c(O)cc(C)oc3=O)=NCCS2)c(OC)c1 (stereo not given),0.0718
16,COc1ccc([C@@H]2CNC(=O)C2)cc1OC1CCCC1 [(R)-(-)-Rolipram],0.037
17,CCc1cc(Cl)c(OC)c(C(=O)NC[C@@H]2CCCN2CC)c1O [Eticlopride hydrochloride],0.148
18,O=C(O)C1CCCN(CCC=C(c2ccccc2)c2ccccc2)C1 (stereo not given),0.028
19,CCCCCCCCCCCCCCCC(=O)O[C@H](CC(=O)O)C[N+](C)(C)C (racemic) [(±)-Palmitoylcarnitine chloride],0.0984
20,[O-][S+](c1ccccc1)c1ccc2nnnn2n1 (stereo not given),0.0718

# Pulled one by one from above (2):
row,SMILES,log
14,C[C@H](NC[C@H](O)CP(=O)(O)Cc1ccccc1)c1ccc(Cl)c(Cl)c1,-0.0186
9,Cc1ccc(NC(=O)C(C)C)cc1C1CCN(Cc2ccc(Oc3ccc(F)c(F)c3)cc2)CC1,-0.0449

# Following part

row,SMILES,log
1,CC1(C(=O)O)NCCc2cc(O)c(O)cc21 (stereo not given) [Salsolinol-1-carboxylic acid],-0.464
2,CC(=N)NCCCC[C@H](N)C(=O)O [L-NIL hydrochloride],0.03
3,CN(C)c1ccc(/C=C2/C(=O)Nc3ccccc32)cc1,-0.36
4,Cc1noc(NS(=O)(=O)c2ccc(N)cc2)c1C [Sulfisoxazole],0.0209
5,O=c1cc(N2CCOCC2)oc2c1ccc1ccccc12,-8.27e-06
6,N#C/C(=C\c1ccc(O)c(O)c1)C(=O)NCCCCc1ccccc1,-0.309
7,CCCCCCCCCCC(C)(C)C(=O)Nc1c(OC)cc(OC)cc1OC,0.0591
8,COc1ccc(CC(=O)NC(/N=C(\NC#N)Nc2cccc3ncccc23)C(C)(C)C)cc1OC (stereo not given),0.03
9,COc1nccc(-c2c(-c3ccc(F)cc3)ncn2C2CCC(O)CC2)n1 (stereo not given),-0.678
10,O=c1oc(-c2ccc(C(F)(F)F)cc2)nn1Cc1cc(Cl)ccc1O,-0.0171
11,CC[C@H](C)C(=O)O[C@H]1CCC=C2C=C[C@H](C)[C@H](CC[C@@H]3C[C@@H](O)CC(=O)O3)[C@H]21 [Mevastatin],0.156
12,CN(N=O)C(=O)N[C@@H](C=O)[C@@H](O)[C@H](O)[C@H](O)CO [Streptozocin],0.00465
13,NC(N)=NC(N)=Nc1cccc(Cl)c1 [m-Chlorophenylbiguanide hydrochloride],0.103
14,CC1(c2ccccc2)OC(C(=O)O)=CC1=O (stereo not given) [Acifran],-0.185
15,CCCCCCNC(=O)Nc1ccc(S(=O)(=O)Nc2ccc(CCNC[C@H](O)COc3ccc(O)cc3)cc2)cc1,0.033
16,CCN(CC)CCOCCOC(=O)C1(c2ccccc2)CCCC1 [Carbetapentane citrate],0.143
17,CC(C)(C)c1ccc(/C=C/C(=O)Nc2ccc3c(c2)OCCO3)cc1,-0.135
18,CC(C)n1nnc2cc(C(=O)O)ccc21,0.0331
19,Cc1nnc(-c2ccc3occ(-c4ccc([S+](C)[O-])cc4)c3c2)o1 (stereo not given),0.029
20,CC(C)N1Cc2cc(S(C)(=O)=O)ccc2N(CCN2CC=C(c3c[nH]c4cc(F)ccc34)CC2)S1(=O)=O,0.0523
